Drawing on paper PMC3366998, this text covers binding for one substance.

Protein sequences, listed by entry. Tags and fused reporters are not part of them.
UniProt Q9Y466: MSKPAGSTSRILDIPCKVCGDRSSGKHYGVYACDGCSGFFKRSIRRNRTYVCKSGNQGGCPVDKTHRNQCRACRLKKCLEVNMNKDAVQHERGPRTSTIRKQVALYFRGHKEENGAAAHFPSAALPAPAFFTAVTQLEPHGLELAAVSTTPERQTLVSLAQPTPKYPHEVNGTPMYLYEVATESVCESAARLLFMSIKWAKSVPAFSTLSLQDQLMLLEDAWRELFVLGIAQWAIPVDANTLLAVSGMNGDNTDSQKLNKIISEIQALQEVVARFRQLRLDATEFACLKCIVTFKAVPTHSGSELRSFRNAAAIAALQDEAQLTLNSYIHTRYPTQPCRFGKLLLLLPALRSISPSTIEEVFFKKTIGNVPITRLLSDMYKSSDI

No constants are given. Whether binding was seen depends on the method and setting. In cells and extracts the contact can be indirect. Some entries that bind do so weakly or less than the wild type.

The target of the assay is TLX-FL-MycTAP (human) (UniProt Q9Y466). Put plainly: co-IP; HEK293 cells transiently co-transfected; lysis in 50 mM HEPES pH 7.5, 150 mM NaCl, 1 mM MgCl2, 1 mM EGTA, 0.5% NP-40; TLX-FL-MycTAP precipitated (Protein G Sepharose beads, 4°C), FLAG-BCL11A-XL found by blot.

For the substance “FLAG-BCL11A-XL (from UniProt Q9H165-1 1-835)”, the binding result is “binds”.
